# Test results as given in patent EP2698385A1, “Detection of synthetic cannabinoids” (priority 2012, dated 2014).
# Where two headings read alike, the source gives them in different places.
# What was measured:
# Format in all cases: binding, sheep
# Antibody to Immunogen I = test system: Antibody to Immunogen I
# Protocol: (§1) An aqueous solution of each immunogen was formulated with Freund's Complete Adjuvant (FCA) to form an emulsion consisting of 2mg/ml* immunogen in 50% (v/v) FCA. Three sheep were immunised with this emulsion (1° immunisation), 0.25ml being intramuscularly injected at each of four sites in the flank of each animal. Subsequent immunizations (boosts) contained 1mg/ml* immunogen. All boosts were emulsified in 50% (v/v) Freund's Incomplete Adjuvant (FIA) and were administered in the same manner as the 1° immunisation, at monthly intervals. Blood sampling took place 7 to 14 days after each boost. *The general procedure for immunogen administration is outlined above, however, it was necessary to deviate from this protocol in some cases, due to reduced immunogen concentrations (Immunogens II, IV, VII and VIII) and/or amount available (Immunogen VIII). Any deviations from the protocol described are outlined in Table 1A below and highlighted in bold. Table 1A: Amount and volume of immunogens administered for primary and subsequent boosts
# (§2) The wells of an enhanced binding 96 well polystyrene microtiter plate were coated with IgG fraction of antiserum raised to Immunogen I or II, diluted in 10mM Tris, pH8.5 (125µl/well). The appropriate antibody coating dilution was determined using standard ELISA checkerboard techniques. The plate was incubated overnight at 4°C, washed 4 times over 10 minutes with Tris buffered saline containing Tween 20 (TBST) and tapped dry. Standard solutions (JWH-018 for Immunogens I and II) were applied at 0, 0.625, 1.25, 2.5, 5, 10, 20 and 40ng/ml and 50µl of each was added to the appropriate wells. 75µl of conjugate (appropriate hapten-HRP) diluted in Tris buffer (pH 7.2) containing EDTA, D-mannitol, sucrose, thimerosal and BSA, was added to each of the wells. The appropriate dilution of conjugate was also determined using standard ELISA checkerboard techniques. The plate was incubated at 25°C for 1 hour. Excess unbound conjugate was removed by washing 6 times over a 10 minute period with TBST. 125µl of tetramethylbenzidine (TMB) substrate solution was added to each well of the plate that was then incubated for 20 minutes in the dark at room temperature. The reaction was terminated by addition of 125µl 0.2M H2SO4 to each well. The absorbance was then measured at 450nm using a microtiter plate reader. The data are inputted to a computer program called 'KC Junior'. It is a 4 parameter fit curve and allow the calculatation of concentrations between the standard runs. This program is used to calculate the IC50s by dividing the 0ng/ml OD value by 2 and obtaining the concentration value from the curve for this OD.
# In a similar manner to that described above, the wells of a 96-well microtiter plate were coated with the IgG fraction of the antiserum raised to Immunogens I or II. Standard solutions (JWH-018 for Immunogen I and II) were applied at 0, 0.625, 1.25, 2.5, 5, 10, 20 and 40ng/ml and conjugate was employed as detection reagent.
# (§3) The data set our in Tables 3 and 4 are generated using antibodies raised against the indicated Immunogens in a competitive binding assay with the indicated tracers, using the indicated standards: Table 2
# (§4) A450 = absorbance at 450nm B = absorbance at 450nm at xng/ml standard concentration B0 = absorbance at 450nm at 0ng/ml standard concentration IC50 = standard concentration which produces 50% B/B0
# (§5) In order to determine the specificity of the competitive ELISAs, standard solutions of a range of structurally similar synthetic cannabinoids and their metabolites were prepared in TBST. Using the calibration curves generated and employing a single level of cross reactants, these were used to determine the cross-reactivity of each immunoassay with these substances. […]
# Antibody to Immunogen IV = test system: Antibody to Immunogen IV
# Protocol: as §1, §2
# (§6) In a similar manner to that described above, the wells of a 96-well microtiter plate were coated with the IgG fraction of the antiserum raised to Immunogens IV, VII or VIII. Standard solutions (JWH-018 for Immunogens IV and VIII, JWH-015 for Immunogen VII) were prepared in TBST at 0, 1.25, 2.5, 5, 10, 20, 40 and 80ng/ml and conjugate was employed as detection reagent.
# as §3, §4, §5
# [1] = test system: Antibody to Immunogen VIII
# Protocol: as §1, §2, §6, §3, §4, §5
# Antibody to Immunogen II = assay: Competitive ELISA (Example 36), antibody RS1833B12, tracer ESC4555/LK959, standard JWH-018
# Protocol: as §1
# as §2, with “The” for “The wells of an enhanced binding 96 well polystyrene microtiter plate were coated with IgG fraction of antiserum raised to Immunogen I or II, diluted in 10mM Tris, pH8.5 (125µl/well). The”, “Standard solutions (JWH-018 for Immunogens I and II) were applied at 0, 0.625, 1.25, 2.5, 5, 10, 20 and 40ng/ml and 50µl of each was added to the appropriate wells.” left out, “runs.” for “runs. This program is used to calculate the IC50s by dividing the 0ng/ml OD value by 2 and obtaining the concentration value from the curve for this OD.”
# In a similar manner to that described above, the wells of a 96-well microtiter plate were coated with the IgG fraction of the antiserum raised to Immunogens I or II.
# as §3
# Using the calibration curves generated and employing a single level of cross reactants, these were used to determine the cross-reactivity of each immunoassay with these substances. These are the standards used for the IC50 and cross-reactivity data generation • Immunogen I - JWH-018 • Immunogen II - JWH-018 • Immunogen IV - JWH-018 • Immunogen VII - JWH-015 • Immunogen VIII - JWH-018 Table 4: Cross reactivity of the competitive ELISAs for synthetic cannabinoids and their metabolites
smiles,measurement,setting,value
CCCCCn1cc(C(=O)c2cccc3ccccc23)c2ccccc21 [JWH-018],A450,Antibody to Immunogen I; JWH-018 standard 0.625 ng/ml,1.247
same,A450,Antibody to Immunogen I; JWH-018 standard 1.25 ng/ml,1.004
same,A450,Antibody to Immunogen I; JWH-018 standard 2.5 ng/ml,0.707
same,A450,Antibody to Immunogen I; JWH-018 standard 5 ng/ml,0.504
same,A450,Antibody to Immunogen I; JWH-018 standard 10 ng/ml,0.323
same,A450,Antibody to Immunogen I; JWH-018 standard 20 ng/ml,0.22
same,A450,Antibody to Immunogen I; JWH-018 standard 40 ng/ml,0.15
same,A450,Antibody to Immunogen IV; JWH-018 standard 1.25 ng/ml,1.479
same,A450,Antibody to Immunogen IV; JWH-018 standard 2.5 ng/ml,1.1625
same,A450,Antibody to Immunogen IV; JWH-018 standard 5 ng/ml,0.7155
same,A450,Antibody to Immunogen IV; JWH-018 standard 10 ng/ml,0.442
same,A450,Antibody to Immunogen IV; JWH-018 standard 20 ng/ml,0.2645
same,A450,Antibody to Immunogen IV; JWH-018 standard 40 ng/ml,0.1735
same,A450,Antibody to Immunogen IV; JWH-018 standard 80 ng/ml,0.116
same,A450,[1]; JWH-018 standard 1 ng/ml,1.09
same,A450,[1]; JWH-018 standard 3 ng/ml,0.8765
same,A450,[1]; JWH-018 standard 5 ng/ml,0.708
same,A450,[1]; JWH-018 standard 10 ng/ml,0.5515
same,A450,[1]; JWH-018 standard 20 ng/ml,0.4015
same,A450,[1]; JWH-018 standard 40 ng/ml,0.3095
same,A450,[1]; JWH-018 standard 80 ng/ml,0.217
same,A450,Antibody to Immunogen II; JWH-018 standard 0.625 ng/ml,0.984
same,A450,Antibody to Immunogen II; JWH-018 standard 1.25 ng/ml,0.7685
same,A450,Antibody to Immunogen II; JWH-018 standard 2.5 ng/ml,0.499
same,A450,Antibody to Immunogen II; JWH-018 standard 5 ng/ml,0.3615
same,A450,Antibody to Immunogen II; JWH-018 standard 10 ng/ml,0.2525
same,A450,Antibody to Immunogen II; JWH-018 standard 20 ng/ml,0.1855
same,A450,Antibody to Immunogen II; JWH-018 standard 40 ng/ml,0.149
